Measurements: paper PMC8750366, “Role of the Redox State of Human Peroxiredoxin-5 on Its TLR4-Activating DAMP Function” (Antioxidants, 2021)
No constants are given. Whether binding was seen depends on the method and setting. Some results given as binding are weak or reduced against the parent protein; the word gives no strength. Where a sequence is shown, tags or fusion partners need not be part of it.

Sequences of proteins named here, by UniProt entry; tags and fusion partners are left off. Residues count along the entry.
UniProt O00206, residues 24-839: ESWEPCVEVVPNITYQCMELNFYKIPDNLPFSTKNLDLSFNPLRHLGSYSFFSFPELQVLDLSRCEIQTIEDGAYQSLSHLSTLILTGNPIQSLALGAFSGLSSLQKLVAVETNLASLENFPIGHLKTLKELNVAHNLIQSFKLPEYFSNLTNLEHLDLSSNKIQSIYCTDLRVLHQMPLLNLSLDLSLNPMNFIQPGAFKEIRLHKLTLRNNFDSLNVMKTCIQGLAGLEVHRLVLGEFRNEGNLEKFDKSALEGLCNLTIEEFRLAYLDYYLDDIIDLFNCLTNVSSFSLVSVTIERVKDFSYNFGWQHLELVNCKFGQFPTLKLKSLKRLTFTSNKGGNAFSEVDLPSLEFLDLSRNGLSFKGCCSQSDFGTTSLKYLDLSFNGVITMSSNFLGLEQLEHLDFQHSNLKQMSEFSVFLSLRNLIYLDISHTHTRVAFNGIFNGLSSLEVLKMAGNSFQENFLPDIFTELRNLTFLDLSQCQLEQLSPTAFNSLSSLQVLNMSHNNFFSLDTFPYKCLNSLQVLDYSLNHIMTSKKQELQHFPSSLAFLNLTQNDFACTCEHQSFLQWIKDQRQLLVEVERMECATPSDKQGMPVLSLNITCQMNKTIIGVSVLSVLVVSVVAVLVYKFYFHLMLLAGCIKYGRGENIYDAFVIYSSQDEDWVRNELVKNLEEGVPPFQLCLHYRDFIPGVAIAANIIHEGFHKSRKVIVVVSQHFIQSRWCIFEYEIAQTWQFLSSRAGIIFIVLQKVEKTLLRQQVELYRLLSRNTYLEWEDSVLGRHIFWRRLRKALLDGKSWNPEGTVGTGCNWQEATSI

Experiments:
[1] = target: TLR4-YFP stably expressed on HEK293 MD2-CD14 cells (UniProt O00206); assay: flow cytometry on cells; living HEK293 MD2-CD14 TLR4 cells exposed to 1 µM of the PRDX5 redox forms or increasing dsPRDX5 in DMEM, 40 min on ice; detected with anti-PRDX5 serum and Alexa Fluor 647 Plus secondary antibody; MFI of untreated cells subtracted; only the binder purified
[2] = target: recombinant wild-type N-terminal 6xHis-tagged human peroxiredoxin-5, disulfide (oxidized) form (human) (UniProt P30044); assay: non-reducing SDS-PAGE and Western blot; 100 ng of each redox form, SDS-PAGE under non-reducing conditions, anti-PRDX5 serum; both purified
[3] = target: recombinant wild-type N-terminal 6xHis-tagged human peroxiredoxin-5, disulfide (oxidized) form (human) (UniProt P30044); assay: ESI-Q-TOF MS of intact proteins by direct infusion; samples in TEAB, dimedone and CAM blocked, acidified with 1% TFA, C4 ZipTip, eluted in 50% acetonitrile, 0.1% formic acid; MaxEnt1 deconvolution; both purified

binding [1]: binds
binding [2]: binds
binding [3]: binds
B1: recombinant wild-type N-terminal 6xHis-tagged human peroxiredoxin-5, disulfide (oxidized) form (enzyme)
chain: APIKVGDAIPAVEVFEGEPGNKVNLAELFKGKKGVLFGVPGAFTPGCSKTHLPGFVEQAEALKAKGVQVVACLSVNDAFVTGEWGRAHKAEGKVRLLADPTGAFGKETDLLLDDSLVSIFGNRRLKRFSMVVQDGIVKALNVEPDGTGLTCSLAPNIISQL
modifications: disulfide bridge between C47 and C151
notes: human peroxiredoxin-5 (PRDX5), wild type; calculated mass with reduced thiols 18,297.81 Da; Mainly a dimer by SEC-MALS, with ~30% monomers; also called dsPRDX5; PRDX5; source: E. coli M15 (pRep4), pQE-30, purified (Ni-NTA), dialyzed against PBS; not shown: His6, N-terminal, kept
